The values that follow come from patent US3966793A (priority 1964, dated 1976).

Data set [1] in a line: Acute toxicity (M) LD 50. The following applies: in vivo, mouse. The data set is classed as in vivo. The protocol:
(§1) A certain number of the compounds described in the present application have been studied with regard to their action on the central nervous system, as psycholeptics, myorrelaxants and tranquilizers. In addition, the acute toxicity has been determined for a number of these compounds.
(§2) In the series of tests briefly described hereafter, each compound was tested with the use of five or six scaled doses on batches of 10 to 20 animals for each dose; it was thereby possible to determine with sufficient exactitude by the method of probits the 50% effective dose (ED 50), that is to say, the dose for which half the animals are protected and react in a predetermined manner according to a particular action.

Data set [2] deals with mouse. Briefly: Acute toxicity (M) LD 50. The format is in vivo. The following applies: PO. The procedure: as §1, §2

As to `CN1C(=O)CN=C(c2ccccc2)c2cc(Cl)ccc21` [Diazepame, 7-Chloro-1-methyl-5-phenyl-2-oxo-2,3-dihydro-1H-benzo[f]-1,4-diazepine, reference compound], the 50% lethal dose (LD50) in data set [1] (IP) was determined as 220 mg/kg; in data set [1] (SC), 800 mg/kg. Also, in data set [2], the “Acute toxicity LD 50” value was 720 mg/kg.
